From article PMC5550679
Results are given in words; binding and its absence hold for the method and conditions named. Binding seen in cells or lysates may run through a third protein. Binding can be weak; no strength is given.

How the values were obtained:
[1] = target: T1, Tetraodon nigroviridis FXYD8 (Tetraodon nigroviridis (endogenous in pufferfish kidney)) (UniProt Q4RHT7); assay: co-IP; renal crude membrane fractions of freshwater pufferfish; IP with anti-TnFXYD8 antiserum or anti-NKA α5 antibody (ImmunoCruz IP/WB Optima System), PBS as negative control; immunoblot for the other protein
T1 sequence: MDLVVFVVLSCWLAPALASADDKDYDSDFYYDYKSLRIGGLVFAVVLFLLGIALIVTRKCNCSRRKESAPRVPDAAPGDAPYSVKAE

[2] = target: Na+/K+-ATPase α-subunit (Tetraodon nigroviridis (endogenous in pufferfish kidney)); assay: as above

## Na+/K+-ATPase α-subunit
[1]
  binding: binds

B1: Tetraodon nigroviridis FXYD8 (protein, UniProt Q4RHT7 1-87)
chain: T1 sequence
[2]
  binding: binds
